Measured values from patent publication US20150209319A1, “COMPOSITIONS COMPRISING AN ANTIBODY AND CAMOSTAT MESYLATE (CM)” (Glaxo Group Limited, priority 2012, published 2015).
These are yes or no findings as the source states them, for the method shown. Some results given as binding are weak or reduced against the parent protein; the word gives no strength. Blank lines part the entries; values can stand above or below the binder they belong to.

Amino acid sequences for entries named in this document (tags omitted). A change or cut given only in a name is not applied to a line headed by its entry.
UniProt Q9NPF7: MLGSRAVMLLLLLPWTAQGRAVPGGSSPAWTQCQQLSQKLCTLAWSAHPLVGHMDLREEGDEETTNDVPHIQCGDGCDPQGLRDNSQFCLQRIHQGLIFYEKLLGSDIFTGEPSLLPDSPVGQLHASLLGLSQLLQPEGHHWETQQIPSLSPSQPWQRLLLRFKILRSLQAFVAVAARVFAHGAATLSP
UniProt P05231: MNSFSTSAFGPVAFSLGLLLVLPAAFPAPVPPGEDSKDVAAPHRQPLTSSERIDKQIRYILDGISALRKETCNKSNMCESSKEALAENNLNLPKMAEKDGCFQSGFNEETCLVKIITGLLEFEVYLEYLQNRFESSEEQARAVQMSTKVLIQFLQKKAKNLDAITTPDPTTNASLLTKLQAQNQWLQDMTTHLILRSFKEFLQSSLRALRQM

What was measured:
[1] = biological target: IL-23 (Homo sapiens (Human)) (UniProt Q9NPF7); assay: ELISA, plate coated with IL-23, detection with peroxidase-conjugated anti-human Fc antibody
[2] = biological target: IL-23 (Homo sapiens (Human)) (UniProt Q9NPF7); assay: ELISA on plate-coated IL-23, detection with peroxidase-conjugated anti-human Fc antibody, OPD, A490; mAb samples taken after incubation in SIF at 37 C with or without camostat mesylate (10 mg/ml), quantified against a mAb standard curve [b]
[3] = biological target: IL-23 (Homo sapiens (Human)) (UniProt Q9NPF7); assay: ELISA, plate coated with IL-23, mAb from SIF incubation with or without camostat mesylate, anti-human Fc detection
[4] = biological target: IL-6 (Homo sapiens (Human)) (UniProt P05231); assay: ELISA, plate coated with IL-6, detection with peroxidase-conjugated anti-human Fc antibody
[5] = biological target: IL-6 (Homo sapiens (Human)) (UniProt P05231); assay: ELISA, plate coated with IL-6, mAb from SIF incubation with or without camostat mesylate, anti-human Fc detection
[6] = biological target: IL-6 (Homo sapiens (Human)) (UniProt P05231); assay: ELISA on plate-coated IL-6, detection with peroxidase-conjugated anti-human Fc antibody, OPD, A490; mAb samples taken after incubation in SIF at 37 C with or without camostat mesylate (10 mg/ml), quantified against a mAb standard curve [a]

binding [1]: binds
binding [2]: binds
binding [3]: binds
B1: anti-IL-23 antibody (SEQ ID NOs: 3 and 4) (antibody, human IgG1, kappa, V domains shown)
VH: QVQLVQSGAEVKKPGSSVKVSCKASGYTFTSYGITWVRQAPGQGLEWMGENYPRSGNIYYNEKFKGRVTITADKSTSTAYMELSSLRSEDTAVYYCARAEFISTVVAPYYYALDYWGQGTLVTVSS
VL: DIVMTQSPDSLAVSLGERATINCKASKKVTIFGSTSALHWYQQKPGQPPKLIYNLAKPESGVPDRFSGSGSGTDFTLTISSLQAEDVAVYYCLQNKEVPYTFGGGTKVEIKR

binding [4]: binds
binding [5]: binds
binding [6]: binds
B2: anti-IL-6 antibody (SEQ ID NOs: 1 and 2) (antibody, human IgG1, kappa, V domains shown)
VH: QVQLQESGPGLVKPSETLSLTCTVSGFSLSTSGMGVGWIRQPPGKGLEWIGHIWWDDDKYYNPSLKSRVTISVDTSKNQFSLKLSSVTAADTAVYYCARSYDDYLYYALDYWGQGTLVTVSS
VL: DIQMTQSPSSLSASVGDRVTITCRASQSISDYLHWYQQKPGKAPKLLIKSVSQSISGVPSRFSGSGSGTDFTLTISSLQPEDFATYYCQNGHSFPLTFGQGTKLEIKR
